# Laboratory results reported in patent publication US11925455B2, “Methods for diagnosing malaria” (Washington University, priority 2017, dated 2024).
# Assay: z-scores of the six VOCs most correlated with malaria status in breath (Cohort 1)
# Design: species or system human
substance,measurement,value
Isoprene,concentration in breath of malaria positive individuals compared to controls,lowered abundance
